Experimental data: PubChem BioAssay AID1224828 (NIAID, 2016)

- Assay: 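Knock-downs that increase or decrease LPS-induced p65 nuclear translocation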 (primary screen)
- Cells: mouse RAW264.7 G9 macrophage reporter cells (GFP-p65, Tnf promoter-mCherry)
- Reagent: siRNA pool against mouse genes, 100 nM
- Time to read-out: 2 days siRNA transfection, then 40 min LPS before fixation
- Treatment: LPS (Salmonella minnesota R595) at 10 ng/ml
- Measured: 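Microscopy ratio of nuclear to perinuclear-ring GFP-p65 signal, scaled to the plate median; gene score is the average of two replicate robust z-scores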
- Direction: p65 translocation robust z-score: higher = more nuclear NF-kappaB p65 after LPS than the plate median; nuclear/cytoplasmic p65 ratio: higher = more nuclear NF-kappaB p65
- Rule for the call: 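Active if robust z is above 3.3 (negative regulators) or below -1.56, the Tlr4 control median (positive regulators); activity score 50 or more; control wells not called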
- Meaning of the calls: active = hit (p65 shift raised or lowered); inactive = no clear change
This is an unselected part of about 17,000 deposited reagents. 762 of them (4.5%) were called active. 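Active calls include both raised and lowered p65 entry, mostly lowered; wells with fewer than 50 cells lack a z-score.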 Raw values are not corrected between plates. No sequences are given here.

Target gene | p65 translocation robust z-score | nuclear/cytoplasmic p65 ratio, rep 1 | nuclear/cytoplasmic p65 ratio, rep 2 | low cell count flag | Call
Neurod2 (GeneID 18013) | -0.68 | 1.63 | 1.52 | enough cells to score | inactive
Bub3 (GeneID 12237) | -1.26 | 1.48 | 1.38 | enough cells to score | inactive
Rnf34 (GeneID 80751) | -0.88 | 1.24 | 1.17 | enough cells to score | inactive
Gpr183 (GeneID 321019) | -0.53 | 1.45 | 1.49 | enough cells to score | inactive
Cndp1 (GeneID 338403) | 0.61 | 1.69 | 1.88 | enough cells to score | inactive
Cadm1 (GeneID 54725) | 0.13 | 1.56 | 1.27 | enough cells to score | inactive
Arhgap31 (GeneID 12549) | 1.08 | 1.72 | 2 | enough cells to score | inactive
Zhx2 (GeneID 387609) | -1.86 | 1.22 | 1.28 | enough cells to score | active
Ubxn4 (GeneID 67812) | – | 1.1 | 1.07 | fewer than 50 cells per well; well left out of scoring | inactive
Clip4 (GeneID 78785) | 1.01 | 1.52 | 1.56 | enough cells to score | inactive
Rgcc (GeneID 66214) | -0.57 | 1.47 | 1.58 | enough cells to score | inactive
Rgl3 (GeneID 71746) | 0.32 | 1.48 | 1.23 | enough cells to score | inactive
Zranb1 (GeneID 360216) | -1.97 | 1.08 | 1.29 | enough cells to score | active
Ppm1h (GeneID 319468) | 2.27 | 2.14 | 1.77 | enough cells to score | inactive
Wfdc15b (GeneID 192201) | -0.3 | 1.32 | 1.57 | enough cells to score | inactive
Exosc1 (GeneID 66583) | -1.86 | 1.26 | 1.27 | enough cells to score | active
Zfp74 (GeneID 72723) | – | 1.18 | 1.28 | fewer than 50 cells per well; well left out of scoring | inactive
Trappc11 (GeneID 320714) | -1.82 | 1.34 | 1.45 | enough cells to score | active
Pdyn (GeneID 18610) | -0.51 | 1.17 | 1.19 | enough cells to score | inactive
Copb1 (GeneID 70349) | – | 1.04 | 1.66 | fewer than 50 cells per well; well left out of scoring | inactive
Rtp3 (GeneID 235636) | – | 1.25 | 1.14 | fewer than 50 cells per well; well left out of scoring | inactive
Gpx5 (GeneID 14780) | 2.33 | 1.41 | 1.89 | enough cells to score | inactive
Rgs8 (GeneID 67792) | -0.4 | 1.39 | 1.47 | enough cells to score | inactive
Actr10 (GeneID 56444) | – | 1.47 | 1.53 | fewer than 50 cells per well; well left out of scoring | inactive

An excerpt from above, reduced to “nuclear/cytoplasmic p65 ratio, rep 1”.
Bub3 (GeneID 12237): 1.48
Rnf34 (GeneID 80751): 1.24
Gpr183 (GeneID 321019): 1.45
